This is one part of the list.
Compound: Cc1cc(ccc1-c1ccccc1)C(=O)N1CCCN(CC1)C(=O)CCl [compound 10]
Experiment: probe-labelled cysteine peptide fold change vs DMSO (competition) (log2 fold change); higher = less target engagement (more negative = stronger competition)
Conditions: THP-1, incubation time: 4 h
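Note: competitive profiling in live THP-1 cells: cysteine peptides tagged with an iodoacetamide desthiobiotin (IA-DTB) probe, intensity after compound treatment relative to DMSO-treated cells.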

## COPB2_P35606_351_DMGSCEIYPQTIQHNPNGR (UniProt P35606)
10 µM
  probe-labelled cysteine peptide fold change: -0.056
50 µM
  probe-labelled cysteine peptide fold change: 0.257

## COA7_Q96BR5_111_SIAACHNVGLLAHDGQVNEDGQPDLGK (UniProt Q96BR5)
10 µM
  probe-labelled cysteine peptide fold change: -0.0863
50 µM
  probe-labelled cysteine peptide fold change: -0.023

## CNBP_P62633_150_CGETGHVAINCSK (UniProt P62633)
10 µM
  probe-labelled cysteine peptide fold change: -0.103
50 µM
  probe-labelled cysteine peptide fold change: 0.0483

## COL4A3BP_Q9Y5P4_575_DNILCK (UniProt Q9Y5P4)
10 µM
  probe-labelled cysteine peptide fold change: 0.197
50 µM
  probe-labelled cysteine peptide fold change: 0.301

## CNST_Q6PJW8_408_LQLAQTEACQDVAR (UniProt Q6PJW8)
10 µM
  probe-labelled cysteine peptide fold change: -0.571
50 µM
  probe-labelled cysteine peptide fold change: -0.127

## COPB2_P35606_56_TFEVCDLPVR (UniProt P35606)
10 µM
  probe-labelled cysteine peptide fold change: -0.0455
50 µM
  probe-labelled cysteine peptide fold change: 0.0775

## COPB2_P35606_689_CQFGLAQECLHHAQDYGGLLLLATASGNANMVNK (UniProt P35606)
10 µM
  probe-labelled cysteine peptide fold change: 0.201
50 µM
  probe-labelled cysteine peptide fold change: 0.303

## COMT_P21964_207_YLPDTLLLEECGLLR (UniProt P21964)
10 µM
  probe-labelled cysteine peptide fold change: -0.00711
50 µM
  probe-labelled cysteine peptide fold change: -0.0131

## COG2_Q14746_287_LLEFVPHHCR (UniProt Q14746)
10 µM
  probe-labelled cysteine peptide fold change: 0.00625
50 µM
  probe-labelled cysteine peptide fold change: -0.0636

## COQ5_Q5HYK3_170_VVVCDINK (UniProt Q5HYK3)
10 µM
  probe-labelled cysteine peptide fold change: 0.165
50 µM
  probe-labelled cysteine peptide fold change: 0.15

## COQ7_Q99807_137_EGAMACTVAVEESIAHHYNNQIR (UniProt Q99807)
10 µM
  probe-labelled cysteine peptide fold change: -0.144
50 µM
  probe-labelled cysteine peptide fold change: 0.105

## COMT_P21964_238_GSSCFECTHYQSFLEYR (UniProt P21964)
10 µM
  probe-labelled cysteine peptide fold change: 0.0524
50 µM
  probe-labelled cysteine peptide fold change: 0.0733

## CNNM4_Q6P4Q7_108_STSCLELTK (UniProt Q6P4Q7)
10 µM
  probe-labelled cysteine peptide fold change: -0.064
50 µM
  probe-labelled cysteine peptide fold change: 0.0895

## COMMD4_Q9H0A8_107_EHAASLCR (UniProt Q9H0A8)
10 µM
  probe-labelled cysteine peptide fold change: 0.117
50 µM
  probe-labelled cysteine peptide fold change: -0.373

## CORO1A_P31146_24_ADQCYEDVR (UniProt P31146)
10 µM
  probe-labelled cysteine peptide fold change: -0.314
50 µM
  probe-labelled cysteine peptide fold change: -0.158

## COPG2_Q9UBF2_440_EAGLAHLCEFIEDCEHTVLATK (UniProt Q9UBF2)
10 µM
  probe-labelled cysteine peptide fold change: -0.0268
50 µM
  probe-labelled cysteine peptide fold change: -0.107

## COPB2_P35606_681_CQFGLAQECLHHAQDYGGLLLLATASGNANMVNK (UniProt P35606)
10 µM
  probe-labelled cysteine peptide fold change: 0.0892
50 µM
  probe-labelled cysteine peptide fold change: 0.088

## COMMD3_Q9UBI1_62_HCHAAAATYILEAGK (UniProt Q9UBI1)
10 µM
  probe-labelled cysteine peptide fold change: 0.178
50 µM
  probe-labelled cysteine peptide fold change: 0.246

## CORO1A_P31146_345_CEPIAMTVPR (UniProt P31146)
10 µM
  probe-labelled cysteine peptide fold change: -0.052
50 µM
  probe-labelled cysteine peptide fold change: -0.141

## COPB2_P35606_234_TCVQTLEGHAQNVSCASFHPELPIIITGSEDGTVR (UniProt P35606)
10 µM
  probe-labelled cysteine peptide fold change: -0.0371
50 µM
  probe-labelled cysteine peptide fold change: 0.224

## COQ3_Q9NZJ6_155_ILDVGCGGGLLTEPLGR (UniProt Q9NZJ6)
10 µM
  probe-labelled cysteine peptide fold change: -0.27
50 µM
  probe-labelled cysteine peptide fold change: -0.101

## CNOT1_A5YKK6_972_DYPQYCQHLASISHFMQFPHHLQEYIEYGQQSR (UniProt A5YKK6)
10 µM
  probe-labelled cysteine peptide fold change: -0.168
50 µM
  probe-labelled cysteine peptide fold change: -0.135

## COPG1_Q9Y678_706_SLPYNQPGTCYTLVALPK (UniProt Q9Y678)
10 µM
  probe-labelled cysteine peptide fold change: 0.143
50 µM
  probe-labelled cysteine peptide fold change: -0.105

## COPG1_Q9Y678_446_ETGLSHLCEFIEDCEFTVLATR (UniProt Q9Y678)
10 µM
  probe-labelled cysteine peptide fold change: 0.155
50 µM
  probe-labelled cysteine peptide fold change: 0.546

## CNOT1_A5YKK6_1457_NLTAGMAMITCR (UniProt A5YKK6)
10 µM
  probe-labelled cysteine peptide fold change: 0.126
50 µM
  probe-labelled cysteine peptide fold change: 0.0884

## COPA_P53621_1191_CPLSGACYSPEFK (UniProt P53621)
10 µM
  probe-labelled cysteine peptide fold change: 0.048
50 µM
  probe-labelled cysteine peptide fold change: 0.0304

## CNTRL_Q7Z7A1_1451_EADRLLAEAESELSCTK (UniProt Q7Z7A1)
10 µM
  probe-labelled cysteine peptide fold change: 0.121
50 µM
  probe-labelled cysteine peptide fold change: 0.0492

## COPB1_P53618_102_LLHEMILVCDAYRK (UniProt P53618)
10 µM
  probe-labelled cysteine peptide fold change: 0.0653
50 µM
  probe-labelled cysteine peptide fold change: -0.385

## COPG2_Q9UBF2_258_ETEDGHESPLFDFIESCLR (UniProt Q9UBF2)
10 µM
  probe-labelled cysteine peptide fold change: -0.0965
50 µM
  probe-labelled cysteine peptide fold change: -0.236

## CORO1A_P31146_24_HVFGQPAKADQCYEDVR (UniProt P31146)
10 µM
  probe-labelled cysteine peptide fold change: -0.402
50 µM
  probe-labelled cysteine peptide fold change: -0.953

## COG1_Q8WTW3_318_LCSWFK (UniProt Q8WTW3)
10 µM
  probe-labelled cysteine peptide fold change: -1.03
50 µM
  probe-labelled cysteine peptide fold change: -2.3

## COL4A3BP_Q9Y5P4_65_SEDETEYGCR (UniProt Q9Y5P4)
10 µM
  probe-labelled cysteine peptide fold change: 0.0067
50 µM
  probe-labelled cysteine peptide fold change: 0.372

## COPG2_Q9UBF2_440+446_EAGLAHLCEFIEDCEHTVLATK (UniProt Q9UBF2)
10 µM
  probe-labelled cysteine peptide fold change: -0.0252
50 µM
  probe-labelled cysteine peptide fold change: -0.112

## CNP_P09543_111_RLDEDLAAYCR (UniProt P09543)
10 µM
  probe-labelled cysteine peptide fold change: 0.175
50 µM
  probe-labelled cysteine peptide fold change: 0.0747

## COASY_Q13057_144_YATSCYSCCPR (UniProt Q13057)
10 µM
  probe-labelled cysteine peptide fold change: -0.369
50 µM
  probe-labelled cysteine peptide fold change: -0.359

## CNOT1_A5YKK6_1420_IAMTTCEQIVR (UniProt A5YKK6)
10 µM
  probe-labelled cysteine peptide fold change: 0.167
50 µM
  probe-labelled cysteine peptide fold change: 0.155

## COPG1_Q9Y678_258_DSPLFDFIESCLR (UniProt Q9Y678)
10 µM
  probe-labelled cysteine peptide fold change: -0.0848
50 µM
  probe-labelled cysteine peptide fold change: -0.171

## COPS7B_Q9H9Q2_157_NQLLEVDFCIGR (UniProt Q9H9Q2)
10 µM
  probe-labelled cysteine peptide fold change: 0.0835
50 µM
  probe-labelled cysteine peptide fold change: -0.0523

## COMP_P49747_371_GDACDDDIDGDR (UniProt P49747)
10 µM
  probe-labelled cysteine peptide fold change: -1.61
50 µM
  probe-labelled cysteine peptide fold change: -0.768

## COPG1_Q9Y678_516_RCVMDDDNEVR (UniProt Q9Y678)
10 µM
  probe-labelled cysteine peptide fold change: 0.134
50 µM
  probe-labelled cysteine peptide fold change: 0.224

## CORO1A_P31146_332_RGLEVNKCEIAR (UniProt P31146)
10 µM
  probe-labelled cysteine peptide fold change: -0.447
50 µM
  probe-labelled cysteine peptide fold change: -0.96

## CNOT1_A5YKK6_1687_YRECHLLVLK (UniProt A5YKK6)
10 µM
  probe-labelled cysteine peptide fold change: 0.18
50 µM
  probe-labelled cysteine peptide fold change: 0.198

## COPA_P53621_1169_NPTDAYQLNYDMHNPFDICAASYR (UniProt P53621)
10 µM
  probe-labelled cysteine peptide fold change: 0.178
50 µM
  probe-labelled cysteine peptide fold change: 0.397

Source: the supplement of paper PMC12067093, “Discovery and optimisation of a covalent ligand for TRIM25 and its application to targeted protein ubiquitination” (Chemical Science, 2025)
